Screen size: about 320,000 compounds; about 22,000 (6.9%) were called active. The inconclusive results got no clear call from the source; some entries with a clear call stand among them for comparison. Calls come from the whole dose curve; as a rule, active = well fitted inhibition curve with a large enough effect; inconclusive = small, poorly fitted or top-dose-only effect, or another doubt; inactive = no such curve, though single readings can be large or run the other way. Potencies beside an inconclusive call are fits to weak or partial responses and may not hold up.
assay: Primary qHTS for delayed death inhibitors of the malarial parasite plastid, 96 hour incubation; settings: P. falciparum luciferase reporter growth; series mostly up to 28.7 µM
How it was run: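 96 h incubation, 37 C, 5% CO2, of luciferase-reporter P. falciparum-infected RBCs (2% hematocrit, 0.05% parasitemia final) with test compounds; endpoint luminescence.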
Potency is the fitted concentration of half-maximal effect.

| SMILES | Potency |
| --- | --- |
| Cc1ccc(NC(=O)COC(=O)C(NS(=O)(=O)c2ccc(Cl)cc2)C(C)O)cc1C (stereo unspecified) | inconclusive: 11.7 µM [inhibitor, single point] |
| COc1cccc(C(C)NC(=S)NCc2ccc(F)cc2)c1 (stereo unspecified) | inconclusive: 4.15 µM [inhibitor, full curve, poor fit] |
| O=C(CN1C(=O)C2CC=CCC2C1=O)Nc1nc(-c2ccc(F)cc2)cs1 (stereo unspecified) | inconclusive: 18.5 µM [inhibitor, single point] |
| Cc1cc(C)c(S(=O)(=O)N2CCN(C(=O)CCOc3ccccc3C)CC2)c(C)c1 | inconclusive: 13.1 µM [inhibitor, partial curve, poor fit] |
| Cc1ccc(-c2noc(CCC(=O)N3CCCc4ccccc43)n2)cc1 | inconclusive: 1.17 µM [inhibitor, full curve, poor fit] |
| O=C(Nc1nc(-c2ccncc2)cs1)C1c2ccccc2Oc2ccccc21 | inconclusive: 10.4 µM [inhibitor, partial curve, poor fit] |
| c1ccc(-c2ccnc3nc(N4CCN(c5ccccc5)CC4)nn23)cc1 | inactive |
| CC(=O)N1N=C(c2ccco2)CC1c1ccc(Cl)o1 (stereo unspecified) | inactive |
| OC1(c2cccc(C(F)(F)F)c2)CCN(c2ccc(-c3ccccc3)nn2)CC1 | active: 3.7 µM |
| NC(=O)c1c(NC(=O)c2cccnc2)sc2c1CCCCC2 | inactive |
| CCSc1nc(NCCN(C)C)c2c3c(sc2n1)COC(C)(CC)C3 (stereo unspecified) | active: 11.7 µM |
| CCCn1c(C(C)Nc2nc(-c3cccc(Br)c3)cs2)nc2ccccc21 (stereo unspecified) | inconclusive: 18.5 µM [inhibitor, single point] |
| CN(Cc1nccs1)C(=O)CC1C(=O)NCCN1Cc1ccc(-c2ccccc2)cc1 (stereo unspecified) | inactive |
| COc1ccc(-c2nc(C#N)c(N3CCN(C(=O)c4ccco4)CC3)o2)cc1OC | inconclusive: 18.5 µM [inhibitor, single point] |
| COc1ccc(Nc2nnc(-c3ccc(O)cc3)c3ccccc23)cc1 | inconclusive: 11.7 µM [inhibitor, partial curve, poor fit] |
| CCN(CC)S(=O)(=O)c1cccc(C(=O)Nc2cc(C)nn2-c2ccccc2)c1 | inconclusive: 13.1 µM [inhibitor, partial curve] |
| CCCCNc1c(N)n(CC(C)C)c(=O)[nH]c1=O | inactive |
| C/C=C\C(=O)Nc1cccc(C2=NOC3(C2)C[C@@H](C(N)=O)N(C(=O)CC(c2ccccc2)c2ccccc2)C3)c1 (stereo partly specified) | active: 13.1 µM |
| Cc1cc(NCCN2CCOCC2)n2nc(C)c(-c3ccc(Cl)cc3)c2n1 | inconclusive: 5.22 µM [inhibitor, partial curve, poor fit] |
| C[C@]12C(=O)N(c3cccc(Cl)c3)C(=O)N1[C@H]1c3ccccc3OC[C@@H]1[C@H]2c1ccccc1 | active: 10.4 µM |
| CC(C)CC1(C)NC(=O)N(CC(=O)Nc2cccc(S(=O)(=O)N(C)c3ccccc3)c2)C1=O (stereo unspecified) | inactive |
| O=C(Nc1ccc(N2C(=O)C3C4C=CC(C4)C3C2=O)cc1Cl)c1cccs1 (stereo unspecified) | inconclusive: 1.04 µM [inhibitor, full curve, poor fit] |
| CCP(=S)(CC)c1ccc(N(C)C)cc1 | inconclusive: 4.15 µM [inhibitor, single point] |
| CCN(c1ccccc1)S(=O)(=O)c1cc(NC(=O)CSc2n[nH]c(=O)[nH]c2=O)ccc1Cl | inconclusive: 8.28 µM [inhibitor, single point] |

| SMILES | Potency |
| --- | --- |
| Nc1nc2c(ncn2CCC(CO)CO)c(=O)[nH]1 | inactive |
| COC(=O)C(Cc1ccc(OC(=O)c2ccc(C)cc2)cc1)N1Cc2ccccc2C1=O (stereo unspecified) | inactive |
| Cc1cccc(C)c1NC(=S)N(Cc1ccccc1)Cc1cccs1 | inconclusive: 8.28 µM [inhibitor, single point] |
| COc1ccccc1N1CCN(CC(O)COc2ccc(S(=O)(=O)N3CCOCC3)cc2)CC1 (stereo unspecified) | active: 8.28 µM |
| Cc1cccc(/C=N/NC(=O)Cc2ccc(Cl)cc2)c1O | inactive |
| C=CCOc1ccc(C2/C(=C(\O)c3ccc(F)cc3)C(=O)C(=O)N2CCCN(C)C)cc1 (stereo unspecified) | inconclusive: 0.208 µM [inhibitor, full curve, poor fit] |
| O=C(Nc1ccccc1)C(=O)Nc1ccc2c(c1)N(C(=O)C1CC1)CCC2 | inactive |
| COc1ccc2c(c1)OC(O)(C(F)F)CC2=O (stereo unspecified) | inconclusive: 8.28 µM [inhibitor, single point] |
| CCC(=NCCC(c1ccccc1)c1ccccc1)c1c(O)[nH]c(=O)[nH]c1=O | inconclusive: 7.38 µM [inhibitor, partial curve, poor fit] |
| CC(C)c1ccc(NC(=O)CCN2C(=O)[C@@H]3Cc4ccccc4CN3C2=O)cc1 | inconclusive: 18.5 µM [inhibitor, single point] |
| COc1cccc(/C=C2\SC(=S)N(CCC(=O)N3CCCCC3CCO)C2=O)c1 (stereo unspecified) | inconclusive: 10.4 µM [inhibitor, single point] |
| CCCn1c(=N)n(CC(=O)c2cccs2)c2ccccc21 | inactive |
| CCOC(=O)c1c(C)n(CC)c2c1cc(O)c1ccccc12 | inactive |
| FC(F)(F)c1cc(Oc2ccc(Cl)cc2)nc(-c2ccccn2)n1 | inconclusive: 18.5 µM [inhibitor, single point] |
| COc1ccc(CC(=O)OC(C)C(=O)Nc2ccc(S(N)(=O)=O)cc2)cc1 (stereo unspecified) | inactive |
| CC(=O)C(Cc1ccc(Cl)nc1)Cc1ccc(Cl)nc1 | inconclusive: 14.7 µM [inhibitor, single point] |
| O=[N+]([O-])c1cccc2ncccc12 | inactive |
| Cc1cccc(CC(=O)NCC2CCCCC2)c1 | inconclusive: 4.15 µM [inhibitor, single point] |
| CCOc1ccc(NC(=O)CS(=O)CC(=O)NC2CCCc3ccccc32)cc1 (stereo unspecified) | inconclusive: 4.15 µM [inhibitor, partial curve, poor fit] |
| CCOc1ccc(-c2c(C)n(-c3ccc(OCC)cc3)c3[n+]2CCCCC3)cc1 | inconclusive: 0.465 µM [inhibitor, full curve, poor fit] |
| COc1ccc(NC(=O)c2cccc(-n3c(C)ccc3C)c2)c(OC)c1 | inconclusive: 11.7 µM [inhibitor, single point] |
| CC(=O)c1ccc(NC(=O)Nc2ccncc2)cc1 | inactive |
| O=C(Nc1ccc2c(c1)C(=O)NC2=O)c1ccc2ncsc2c1 | inactive |
| O=C1CC(C(=O)Nc2ccccc2)C2(CCCC2)O1 (stereo unspecified) | inactive |

Quoted from the listing for reference:

| SMILES | Potency |
| --- | --- |
| C=CCOc1ccc(C2/C(=C(\O)c3ccc(F)cc3)C(=O)C(=O)N2CCCN(C)C)cc1 (stereo unspecified) | inconclusive: 0.208 µM [inhibitor, full curve, poor fit] |
| O=C(Nc1ccccc1)C(=O)Nc1ccc2c(c1)N(C(=O)C1CC1)CCC2 | inactive |
| COc1ccc2c(c1)OC(O)(C(F)F)CC2=O (stereo unspecified) | inconclusive: 8.28 µM [inhibitor, single point] |
| CCC(=NCCC(c1ccccc1)c1ccccc1)c1c(O)[nH]c(=O)[nH]c1=O | inconclusive: 7.38 µM [inhibitor, partial curve, poor fit] |
| CC(C)c1ccc(NC(=O)CCN2C(=O)[C@@H]3Cc4ccccc4CN3C2=O)cc1 | inconclusive: 18.5 µM [inhibitor, single point] |
| COc1cccc(/C=C2\SC(=S)N(CCC(=O)N3CCCCC3CCO)C2=O)c1 (stereo unspecified) | inconclusive: 10.4 µM [inhibitor, single point] |
| CCCn1c(=N)n(CC(=O)c2cccs2)c2ccccc21 | inactive |
| CCOC(=O)c1c(C)n(CC)c2c1cc(O)c1ccccc12 | inactive |
| FC(F)(F)c1cc(Oc2ccc(Cl)cc2)nc(-c2ccccn2)n1 | inconclusive: 18.5 µM [inhibitor, single point] |
| COc1ccc(CC(=O)OC(C)C(=O)Nc2ccc(S(N)(=O)=O)cc2)cc1 (stereo unspecified) | inactive |
| CC(=O)C(Cc1ccc(Cl)nc1)Cc1ccc(Cl)nc1 | inconclusive: 14.7 µM [inhibitor, single point] |
| O=[N+]([O-])c1cccc2ncccc12 | inactive |
| Cc1cccc(CC(=O)NCC2CCCCC2)c1 | inconclusive: 4.15 µM [inhibitor, single point] |
| CCOc1ccc(NC(=O)CS(=O)CC(=O)NC2CCCc3ccccc32)cc1 (stereo unspecified) | inconclusive: 4.15 µM [inhibitor, partial curve, poor fit] |
| CCOc1ccc(-c2c(C)n(-c3ccc(OCC)cc3)c3[n+]2CCCCC3)cc1 | inconclusive: 0.465 µM [inhibitor, full curve, poor fit] |
| COc1ccc(NC(=O)c2cccc(-n3c(C)ccc3C)c2)c(OC)c1 | inconclusive: 11.7 µM [inhibitor, single point] |
| CC(=O)c1ccc(NC(=O)Nc2ccncc2)cc1 | inactive |
| O=C(Nc1ccc2c(c1)C(=O)NC2=O)c1ccc2ncsc2c1 | inactive |

Next part.

| SMILES | Potency |
| --- | --- |
| CC(=O)c1ccc(NC(=S)NC(=O)/C=C/c2ccc(F)cc2)cc1 | inconclusive: 1.85 µM [inhibitor, full curve, poor fit] |
| O=S(=O)(c1ccc2ccccc2c1)N1CCCOC1 | inconclusive: 13.1 µM [inhibitor, partial curve, poor fit] |
| COc1cccc(CNC(=O)c2ccccc2SCC(=O)N2CCCC2)c1 | inactive |
| CC(C)(C)c1ccc(-c2ncccc2O)cc1 | inconclusive: 18.5 µM [inhibitor, single point] |
| O=C1c2ccccc2C(Nc2ccc(S(=O)(=O)N3CCOCC3)cc2)N1c1cccnc1 (stereo unspecified) | inconclusive: 8.28 µM [inhibitor, partial curve] |
| O=C1c2ccccc2C(O)(c2ccccc2)N1CCc1ccccc1 (stereo unspecified) | inconclusive: 11.7 µM [inhibitor, single point] |
| NS(=O)(=O)c1ccc(CCNC(=O)COC(=O)Cc2c(F)cccc2Cl)cc1 | inactive |
| CC(C)CCNC(=O)NC(=O)COc1ncnc2sccc12 | inconclusive: 20.8 µM [inhibitor, partial curve, poor fit] |
| COc1cc(NC(=O)CCC(=O)Nc2ccc3nc(N4CCOCC4)cc(C)c3c2)cc(OC)c1OC | inactive |
| CCOC(=O)c1cnc(SCc2ccc(C(C)(C)C)cc2)nc1N | inconclusive: 9.28 µM [inhibitor, partial curve, poor fit] |
| CN(c1ccccc1)S(=O)(=O)c1cccc(NC(=O)C2CC(=O)N(Cc3ccccc3)C2)c1 (stereo unspecified) | inconclusive: 10.4 µM [inhibitor, partial curve] |
| Cc1ccccc1N/C(SCc1cccc(Br)c1)=C(/C#N)C(N)=O | inconclusive: 18.5 µM [inhibitor, single point] |
| CC(NC(=O)C(Cc1ccccc1)N1C(=O)C2C3CCC(C3)C2C1=O)c1ccccc1 (stereo unspecified) | inactive |
| Cc1ccc(-c2csc3ncn(C(C)C(=O)O)c(=O)c23)cc1 (stereo unspecified) | inactive |
| O=C(c1ccccc1)N(CCN1CCOCC1)C1(C(=O)Nc2ccccc2)CCCCC1 | inconclusive: 7.38 µM [inhibitor, single point] |
| CCNC(=O)CCc1nc(-c2ccc(C(C)(C)C)cc2)no1 | inconclusive: 13.1 µM [inhibitor, partial curve, poor fit] |
| OCCN1CCN(Cc2nc(-c3cccc(Cl)c3)no2)CC1 | inconclusive: 13.1 µM [inhibitor, single point] |
| CCCc1ccc2oc(C(=O)N(C)Cc3nccs3)c(C)c2c1 | inconclusive: 20.8 µM [inhibitor, single point] |
| Cc1ccc(CN2C(=O)CSc3ccc(C(=O)NCCN4CCOCC4)cc32)cc1 | inactive |
| CCOc1ccc(S(=O)(=O)N2CCCC(C(=O)NC3CC3)C2)cc1Cl (stereo unspecified) | inactive |
| O=C(CSc1nnc(CNc2ccc(F)cc2)n1-c1ccccc1)N1CCOCC1 | inconclusive: 2.33 µM [inhibitor, partial curve] |
| O=C(NNC(=O)c1cccs1)Nc1cccc(Cl)c1 | inconclusive: 0.0586 µM [inhibitor, full curve, poor fit] |
| Cc1cc(=O)oc2cc(OC(C)C(=O)Nc3ccc(N4CCOCC4)cc3)ccc12 (stereo unspecified) | inactive |

Reference: PubChem BioAssay AID504834 (National Center for Advancing Translational Sciences (NCATS), 2011)
